Consider 15 compounds from PubChem BioAssay AID1487 (National Center for Advancing Translational Sciences (NCATS), 2009).

The experiment can be described thus: qHTS Assay for Modulators of Lamin A Splicing. Conditions: HeLa LMNA splicing GFP/RFP minigene ratio, 48 h. The gist of the method: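 S3 HeLa cells stably expressing lamin A-EGFP splicing minigene plus DsRed2, 600 cells/well, 48 h compound exposure at 37C. Laser-scanning cytometry; analysed as GFP (500-530 nm)/RFP (575-640 nm) total intensity ratio; 0.5% DMSO vehicle.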
(In general: Quantitative high-throughput screening tests each substance at several concentrations.)

[1] abbreviates: measured here: RFP viability control channel.
Setting [2] is: measured here: GFP splicing reporter channel.

SMILES strings stand for the structures. Some of the results follow. These are further read-outs of the screen, such as a control signal, another cell line or another target. No call is given for them. Most of these compounds were active or inconclusive in the main read-out, so they are no random draw. Potencies come from curve fits of mixed quality, noted in brackets.

As to `CCOc1ccc(OC(=O)c2cccnc2)cc1`, under setting [1], the AC50 is 17.8 µM [rising, single point]. Take `CC(=O)Nc1ccc(Nc2c([N+](=O)[O-])cc(S(C)(=O)=O)cc2[N+](=O)[O-])cc1`: under setting [1], the concentration at half-maximal activity (AC50) was 22.4 µM [rising, partial curve].

Take `CCc1c(C(=O)N2CCN(c3ccccc3F)CC2)[nH]c(C)c1C(C)=O`: the AC50 under setting [1] was 14.1 µM [rising, single point].

On to `COC(=O)c1sc2cccc(F)c2c1S(=O)(=O)N1CCN(c2ccccc2OC)CC1`, for which, under setting [1], the AC50 was 11.2 µM [rising, partial curve, poor fit]. For `COc1ccc(-c2cc3nc(-c4ccccc4)cc(N4CCC5(CC4)OCCO5)n3n2)cc1`, the concentration at half-maximal activity (AC50) under setting [2] is 35.5 µM [rising, single point]. `CC1CCN(C(=O)CN2CCSc3ccccc32)CC1`: under setting [2], the AC50 was 4.47 µM [rising, single point]. For the compound `COc1ccc(S(=O)(=O)N2CCN(C(=O)c3cccs3)CC2)cc1OC`, under setting [1], the AC50 is 20 µM [rising, single point]. Consider `CCC(=O)N1CCCc2cc(S(=O)(=O)N3CCC(C(=O)Nc4ccc(F)c(F)c4)CC3)ccc21`, for which the AC50 under setting [2] is 15.8 µM [falling, single point].

Regarding `O=C(CN1c2ccccc2S(=O)(=O)c2ccccc21)Nc1ccccc1Cl`, the concentration at half-maximal activity (AC50) reads like this: under setting [2], 0.0355 µM [falling, full curve, poor fit]; under setting [1], 0.0282 µM [falling, full curve, poor fit].

`O=C(Cn1cnc2onc(-c3ccc(F)cc3)c2c1=O)Nc1ccc(F)c(Cl)c1`: the AC50 was 35.5 µM [falling, partial curve, poor fit] under setting [2] and 35.5 µM [falling, partial curve, poor fit] under setting [1]. As to `C[C@@]12C(=O)OC(=O)[C@@]1(C)C1CCC2O1`, the concentration at half-maximal activity (AC50) reads like this: under setting [2], 2.82 µM [falling, full curve]; under setting [1], 2.82 µM [falling, full curve]. On to `COc1cccc2sc(N(CCCN(C)C)C(=O)C(c3ccccc3)c3ccccc3)nc12`, for which the AC50 reads like this: under setting [2], 4.47 µM [falling, partial curve]; under setting [1], 3.16 µM [falling, partial curve]. Take `CN(C)/C=N/c1sc2c(c1C#N)CCCCC2`: the AC50 is 7.08 µM [rising, partial curve, poor fit] under setting [2] and 10 µM [rising, partial curve] under setting [1]. For the compound `CNC(=O)c1cc(C(=O)c2ccc(C(F)(F)F)cc2F)c[nH]1`, the half-maximal activity concentration (AC50) under setting [2] was 0.158 µM [falling, single point]. Consider `CCOc1ccc(Cl)cc1S(=O)(=O)N1CCN(c2ccc(C)c(C)c2)CC1`, for which, under setting [1], the half-maximal activity concentration (AC50) is 31.6 µM [rising, single point].

As a reminder, the AC50 is the midpoint of the concentration-response curve, whichever way the signal moves.
